Test results published in the supplement of paper PMC10849652.
This is one part of the list.

Chains of the proteins cited; added tags and fusions are not shown. Lines headed by an entry give the natural chain unless they say otherwise; changes in a name come on top.
UniProt Q96I23: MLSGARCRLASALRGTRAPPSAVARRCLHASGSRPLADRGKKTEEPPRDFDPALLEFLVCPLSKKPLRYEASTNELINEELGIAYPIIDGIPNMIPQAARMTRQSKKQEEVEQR
UniProt Q8WUD1: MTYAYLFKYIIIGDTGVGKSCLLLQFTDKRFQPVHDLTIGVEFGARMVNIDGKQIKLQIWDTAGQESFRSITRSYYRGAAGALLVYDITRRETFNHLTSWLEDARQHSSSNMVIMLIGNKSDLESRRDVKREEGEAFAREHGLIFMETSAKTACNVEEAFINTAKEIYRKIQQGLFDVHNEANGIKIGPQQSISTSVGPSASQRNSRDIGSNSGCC
UniProt P06737: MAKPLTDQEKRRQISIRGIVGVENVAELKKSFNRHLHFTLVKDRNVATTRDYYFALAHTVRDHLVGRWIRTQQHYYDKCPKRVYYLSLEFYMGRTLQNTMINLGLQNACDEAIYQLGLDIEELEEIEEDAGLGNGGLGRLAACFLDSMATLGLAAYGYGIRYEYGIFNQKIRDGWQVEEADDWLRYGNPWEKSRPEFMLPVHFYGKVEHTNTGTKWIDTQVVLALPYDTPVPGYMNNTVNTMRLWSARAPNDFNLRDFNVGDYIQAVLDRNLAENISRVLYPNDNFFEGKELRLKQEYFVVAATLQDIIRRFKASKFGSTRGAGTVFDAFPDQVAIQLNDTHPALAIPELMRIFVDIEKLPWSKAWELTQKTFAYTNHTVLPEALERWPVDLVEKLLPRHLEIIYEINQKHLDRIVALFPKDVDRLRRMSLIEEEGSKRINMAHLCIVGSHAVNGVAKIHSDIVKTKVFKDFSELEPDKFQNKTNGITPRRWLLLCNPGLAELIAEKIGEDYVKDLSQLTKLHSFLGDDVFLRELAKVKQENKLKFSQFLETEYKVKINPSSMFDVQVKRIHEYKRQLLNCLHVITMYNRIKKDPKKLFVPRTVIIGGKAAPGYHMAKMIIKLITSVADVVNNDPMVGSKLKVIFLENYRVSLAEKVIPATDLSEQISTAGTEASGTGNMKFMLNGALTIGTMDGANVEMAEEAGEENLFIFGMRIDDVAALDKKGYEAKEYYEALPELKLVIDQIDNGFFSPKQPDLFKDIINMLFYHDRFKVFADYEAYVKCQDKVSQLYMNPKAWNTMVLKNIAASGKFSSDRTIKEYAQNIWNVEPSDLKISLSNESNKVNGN
UniProt Q6WKZ4: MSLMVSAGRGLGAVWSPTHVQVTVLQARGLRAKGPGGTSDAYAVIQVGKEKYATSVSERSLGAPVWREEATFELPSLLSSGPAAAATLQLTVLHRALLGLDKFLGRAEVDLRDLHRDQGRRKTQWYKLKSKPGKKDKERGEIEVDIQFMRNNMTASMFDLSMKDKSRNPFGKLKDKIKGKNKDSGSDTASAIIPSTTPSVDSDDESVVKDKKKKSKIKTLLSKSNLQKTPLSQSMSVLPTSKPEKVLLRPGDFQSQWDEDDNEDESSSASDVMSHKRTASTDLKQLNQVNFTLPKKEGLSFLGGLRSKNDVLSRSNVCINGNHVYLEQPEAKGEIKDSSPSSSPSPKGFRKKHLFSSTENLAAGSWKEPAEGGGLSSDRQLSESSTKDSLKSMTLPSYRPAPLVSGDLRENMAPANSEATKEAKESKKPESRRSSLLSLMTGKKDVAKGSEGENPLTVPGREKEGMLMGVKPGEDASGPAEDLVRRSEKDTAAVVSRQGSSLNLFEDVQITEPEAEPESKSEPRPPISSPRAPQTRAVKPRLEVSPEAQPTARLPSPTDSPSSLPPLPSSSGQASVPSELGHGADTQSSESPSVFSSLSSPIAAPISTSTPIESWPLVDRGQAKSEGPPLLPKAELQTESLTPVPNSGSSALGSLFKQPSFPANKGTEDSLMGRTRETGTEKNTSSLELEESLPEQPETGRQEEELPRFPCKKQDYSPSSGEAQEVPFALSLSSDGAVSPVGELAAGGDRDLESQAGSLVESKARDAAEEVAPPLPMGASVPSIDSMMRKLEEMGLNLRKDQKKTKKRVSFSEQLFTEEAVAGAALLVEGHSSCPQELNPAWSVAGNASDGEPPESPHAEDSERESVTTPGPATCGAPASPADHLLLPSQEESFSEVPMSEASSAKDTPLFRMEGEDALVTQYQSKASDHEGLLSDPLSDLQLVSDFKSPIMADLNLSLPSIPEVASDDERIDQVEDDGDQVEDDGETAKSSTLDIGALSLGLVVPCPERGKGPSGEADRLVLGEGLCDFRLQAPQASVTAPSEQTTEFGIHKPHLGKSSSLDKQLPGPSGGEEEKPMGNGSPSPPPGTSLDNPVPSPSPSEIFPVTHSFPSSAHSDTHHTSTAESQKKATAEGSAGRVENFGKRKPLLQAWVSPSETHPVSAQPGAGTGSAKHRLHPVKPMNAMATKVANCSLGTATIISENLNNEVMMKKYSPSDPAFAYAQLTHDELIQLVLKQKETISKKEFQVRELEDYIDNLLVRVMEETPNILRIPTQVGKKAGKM
UniProt Q9NX57: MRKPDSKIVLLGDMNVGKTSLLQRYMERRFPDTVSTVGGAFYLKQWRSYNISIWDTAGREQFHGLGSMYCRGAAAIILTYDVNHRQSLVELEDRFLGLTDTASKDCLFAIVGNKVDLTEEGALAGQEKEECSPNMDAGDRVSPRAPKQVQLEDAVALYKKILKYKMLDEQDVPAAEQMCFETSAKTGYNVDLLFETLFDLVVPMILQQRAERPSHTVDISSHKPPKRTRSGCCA
UniProt P61006: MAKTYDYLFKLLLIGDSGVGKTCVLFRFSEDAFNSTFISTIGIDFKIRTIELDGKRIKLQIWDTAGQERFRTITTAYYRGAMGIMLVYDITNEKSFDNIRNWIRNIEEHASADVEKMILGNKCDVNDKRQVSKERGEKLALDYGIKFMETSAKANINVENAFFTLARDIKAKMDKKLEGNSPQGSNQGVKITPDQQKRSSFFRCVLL
UniProt Q13905: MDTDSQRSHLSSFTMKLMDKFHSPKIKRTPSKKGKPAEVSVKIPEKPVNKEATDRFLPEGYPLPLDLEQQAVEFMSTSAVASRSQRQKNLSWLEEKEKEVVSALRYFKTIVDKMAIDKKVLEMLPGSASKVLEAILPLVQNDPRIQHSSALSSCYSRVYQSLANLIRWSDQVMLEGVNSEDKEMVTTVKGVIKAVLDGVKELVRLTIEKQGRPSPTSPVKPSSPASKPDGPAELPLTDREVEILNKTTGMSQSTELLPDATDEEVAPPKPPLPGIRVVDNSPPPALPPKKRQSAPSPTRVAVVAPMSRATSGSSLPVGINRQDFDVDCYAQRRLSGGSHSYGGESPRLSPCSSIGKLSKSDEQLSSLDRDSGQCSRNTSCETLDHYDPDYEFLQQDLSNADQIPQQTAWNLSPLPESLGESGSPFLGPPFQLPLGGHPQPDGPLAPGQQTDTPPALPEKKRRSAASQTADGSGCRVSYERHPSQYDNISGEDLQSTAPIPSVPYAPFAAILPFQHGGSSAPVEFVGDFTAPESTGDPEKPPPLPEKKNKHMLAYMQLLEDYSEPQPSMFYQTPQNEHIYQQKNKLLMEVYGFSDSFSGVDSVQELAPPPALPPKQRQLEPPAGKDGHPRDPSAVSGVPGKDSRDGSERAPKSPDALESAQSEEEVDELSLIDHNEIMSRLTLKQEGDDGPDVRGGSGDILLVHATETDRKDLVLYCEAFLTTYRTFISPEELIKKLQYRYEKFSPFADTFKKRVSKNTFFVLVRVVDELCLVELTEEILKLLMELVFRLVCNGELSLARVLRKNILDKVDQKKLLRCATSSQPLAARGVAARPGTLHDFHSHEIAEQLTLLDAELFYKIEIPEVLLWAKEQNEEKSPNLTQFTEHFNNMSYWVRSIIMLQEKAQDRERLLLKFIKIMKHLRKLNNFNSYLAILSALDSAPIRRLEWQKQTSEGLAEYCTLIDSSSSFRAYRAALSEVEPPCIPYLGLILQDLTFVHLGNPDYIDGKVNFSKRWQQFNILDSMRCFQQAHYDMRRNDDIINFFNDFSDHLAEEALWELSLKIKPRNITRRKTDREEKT
UniProt Q53H96: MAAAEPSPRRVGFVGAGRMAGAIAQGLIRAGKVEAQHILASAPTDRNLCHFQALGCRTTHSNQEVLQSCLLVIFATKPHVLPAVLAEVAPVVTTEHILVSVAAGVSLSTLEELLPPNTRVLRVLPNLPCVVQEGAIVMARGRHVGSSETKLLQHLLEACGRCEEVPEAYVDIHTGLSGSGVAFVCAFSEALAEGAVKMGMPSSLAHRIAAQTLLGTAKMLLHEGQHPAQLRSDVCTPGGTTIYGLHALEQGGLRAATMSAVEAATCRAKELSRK
UniProt P61018: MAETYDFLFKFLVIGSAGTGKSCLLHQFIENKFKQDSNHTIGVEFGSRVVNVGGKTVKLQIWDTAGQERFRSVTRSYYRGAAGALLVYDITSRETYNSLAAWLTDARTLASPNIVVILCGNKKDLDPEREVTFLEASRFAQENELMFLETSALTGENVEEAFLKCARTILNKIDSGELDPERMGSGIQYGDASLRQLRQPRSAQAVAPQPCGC
UniProt Q969Q5: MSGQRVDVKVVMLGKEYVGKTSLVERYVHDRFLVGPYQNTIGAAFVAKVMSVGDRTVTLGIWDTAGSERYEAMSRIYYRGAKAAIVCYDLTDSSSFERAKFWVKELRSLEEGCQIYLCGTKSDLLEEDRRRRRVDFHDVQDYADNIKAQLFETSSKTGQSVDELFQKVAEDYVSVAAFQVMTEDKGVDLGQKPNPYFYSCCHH
UniProt P51148: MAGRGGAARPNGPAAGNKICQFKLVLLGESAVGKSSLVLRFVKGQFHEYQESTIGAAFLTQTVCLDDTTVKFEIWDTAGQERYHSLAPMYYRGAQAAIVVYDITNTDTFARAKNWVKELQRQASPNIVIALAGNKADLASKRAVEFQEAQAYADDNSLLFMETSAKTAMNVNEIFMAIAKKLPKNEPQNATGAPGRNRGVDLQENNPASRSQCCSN
UniProt Q9UL25: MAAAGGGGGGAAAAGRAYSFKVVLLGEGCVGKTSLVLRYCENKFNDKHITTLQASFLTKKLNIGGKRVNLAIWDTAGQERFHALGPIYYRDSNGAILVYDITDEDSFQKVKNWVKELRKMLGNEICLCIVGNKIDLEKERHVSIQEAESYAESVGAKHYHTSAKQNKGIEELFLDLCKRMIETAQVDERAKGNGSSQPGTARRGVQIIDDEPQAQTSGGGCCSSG
UniProt Q9H0H5: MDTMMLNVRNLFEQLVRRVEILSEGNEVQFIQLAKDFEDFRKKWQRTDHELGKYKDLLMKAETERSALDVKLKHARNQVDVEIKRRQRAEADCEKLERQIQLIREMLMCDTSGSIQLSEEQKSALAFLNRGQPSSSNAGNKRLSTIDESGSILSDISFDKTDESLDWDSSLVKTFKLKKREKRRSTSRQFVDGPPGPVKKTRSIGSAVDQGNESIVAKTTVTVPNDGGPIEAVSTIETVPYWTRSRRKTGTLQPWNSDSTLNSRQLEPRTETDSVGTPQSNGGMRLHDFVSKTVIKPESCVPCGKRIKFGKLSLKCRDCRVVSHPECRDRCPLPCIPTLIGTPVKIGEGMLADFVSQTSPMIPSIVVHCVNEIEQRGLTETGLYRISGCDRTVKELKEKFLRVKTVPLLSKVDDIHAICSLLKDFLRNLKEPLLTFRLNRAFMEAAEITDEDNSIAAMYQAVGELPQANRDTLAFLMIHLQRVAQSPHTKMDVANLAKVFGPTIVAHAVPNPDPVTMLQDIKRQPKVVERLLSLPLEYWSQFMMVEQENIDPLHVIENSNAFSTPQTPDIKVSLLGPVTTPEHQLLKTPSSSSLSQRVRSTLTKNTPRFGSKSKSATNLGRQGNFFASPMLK

These targets were tested with O=C(CCCCCCC(=O)Nc1ccccc1)NO [vorinostat] (assay: log2 fold change, soluble protein after heating vs DMSO (PISA); higher = thermal stabilisation; K562 lysate, 10 uM; active = over 0.2 and 3.5 SD of the protein, either way, in both replicates (recomputed)).
Outline: (§1)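 Quantification was by TMTpro 16plex LC-MS/MS with equalised channel sums, applied to the supernatant after 21,000xg for 90 min. Samples were crude K562 extract at 1 mg/mL protein in PBS pH 7.4 with 1 mM MgCl2, treated with 10 μM compound for 30 min, heated for 3 min across 48°C-58°C, pooled and brought to 0.5% NP-40 at 4°C. Values are log-two fold changes in thermal stability relative to solvent controls, from duplicates.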

Q: RALY (UniProt Q9UKM9) was tested. Which log2 fold change did it give?
A: inactive: 0.07

Q: With PYURF (UniProt Q96I23) as the target, how does the log2 fold change read?
A: inactive: -0.007

Q: RAB2B (UniProt Q8WUD1) was tested. Which log2 fold change did it give?
A: inactive: 0.126

Q: Which log2 fold change does the source give for QTRT2 isoform 4 (UniProt Q9H974) here?
A: inactive: 0.079

Q: RAPGEF4 (UniProt Q8WZA2) was tested. Which log2 fold change did it give?
A: inactive: 0.143

Q: PYGL (UniProt P06737) was tested. Which log2 fold change did it give?
A: inactive: 0.05

Q: How did the log2 fold change turn out when RAB6B (UniProt Q9NRW1) was run?
A: inactive: 0.119

Q: Which log2 fold change does the source give for RAN (UniProt P62826) here?
A: inactive: 0.099

Q: RAB11FIP1 (UniProt Q6WKZ4) was tested. Which log2 fold change did it give?
A: inactive: 0.031

Q: RANBP2 (UniProt P49792) was tested. Which log2 fold change did it give?
A: active: -0.343

Q: RAB20 (UniProt Q9NX57) was tested. Which log2 fold change did it give?
A: inactive: 0.136

Q: For RAB8A (UniProt P61006), which log2 fold change is on record?
A: inactive: 0.1

Q: For RAPGEF1 isoform 3 (UniProt Q13905), which log2 fold change is on record?
A: inactive: -0.127

Q: How did the log2 fold change turn out when PXMP2 (UniProt Q9NR77) was run?
A: inactive: 0.072

Q: With RAB35 (UniProt Q15286) as the target, how does the log2 fold change read?
A: inactive: 0.035

Q: How did the log2 fold change turn out when PYCR3 (UniProt Q53H96) was run?
A: inactive: 0.054

Q: For RAB4B isoform 2 (UniProt P61018), which log2 fold change is on record?
A: inactive: 0.156

Q: Which log2 fold change does the source give for QPCTL (UniProt Q9NXS2) here?
A: inactive: 0.111

Q: How did the log2 fold change turn out when RAB18 isoform 2 (UniProt Q9NP72) was run?
A: inactive: 0.111

Q: For RAB24 (UniProt Q969Q5), which log2 fold change is on record?
A: inactive: 0.096

Q: How did the log2 fold change turn out when RAF1 isoform 2 (UniProt P04049) was run?
A: active: -0.304

Q: RAB32 (UniProt Q13637) was tested. Which log2 fold change did it give?
A: inactive: 0.092

Q: R3HCC1L, A0A384DVK4 was tested. Which log2 fold change did it give?
A: inactive: -0.043

Q: Which log2 fold change does the source give for PXMP4 (UniProt Q9Y6I8) here?
A: inactive: 0.295

Q: Which log2 fold change does the source give for RABGAP1L isoform 3 (UniProt Q5R372) here?
A: inactive: -0.191

Q: With R3HDM4 (UniProt Q96D70) as the target, how does the log2 fold change read?
A: inactive: 0.003

Q: With R3HCC1 (UniProt Q9Y3T6) as the target, how does the log2 fold change read?
A: active: -0.259

Q: Which log2 fold change does the source give for RAB5C isoform 2 (UniProt P51148) here?
A: inactive: 0.057

Q: PYGB (UniProt P11216) was tested. Which log2 fold change did it give?
A: inactive: -0.004

Q: RAB21 (UniProt Q9UL25) was tested. Which log2 fold change did it give?
A: inactive: -0.235

Q: For RACGAP1 (UniProt Q9H0H5), which log2 fold change is on record?
A: inactive: -0.229

Q: For RANBP1 (UniProt P43487), which log2 fold change is on record?
A: inactive: 0.135

Each target was assayed with O=C(O)c1ccc2c(c1)nc(Nc1cccc(Cl)c1)c1ccncc12 [silmitasertib] in the same assay as above.
Outline: as §1

Q: RALY (UniProt Q9UKM9) was tested. Which log2 fold change did it give?
A: inactive: -0.018

Q: Which log2 fold change does the source give for PYURF (UniProt Q96I23) here?
A: inactive: -0.001

Q: For RAB2B (UniProt Q8WUD1), which log2 fold change is on record?
A: inactive: -0.003

Q: For QTRT2 isoform 4 (UniProt Q9H974), which log2 fold change is on record?
A: inactive: -0.011

Q: With RAPGEF4 (UniProt Q8WZA2) as the target, how does the log2 fold change read?
A: inactive: -0.09

Q: With PYGL (UniProt P06737) as the target, how does the log2 fold change read?
A: inactive: 0.184

Q: For RAB6B (UniProt Q9NRW1), which log2 fold change is on record?
A: inactive: -0.012

Q: Which log2 fold change does the source give for RAN (UniProt P62826) here?
A: inactive: -0.001

Q: With RAB11FIP1 (UniProt Q6WKZ4) as the target, how does the log2 fold change read?
A: inactive: 0.033

Q: With RANBP2 (UniProt P49792) as the target, how does the log2 fold change read?
A: inactive: -0.004

Q: With RAB20 (UniProt Q9NX57) as the target, how does the log2 fold change read?
A: inactive: -0.022

Q: For RAB8A (UniProt P61006), which log2 fold change is on record?
A: inactive: 0.051

Q: How did the log2 fold change turn out when RAPGEF1 isoform 3 (UniProt Q13905) was run?
A: inactive: 0.007

Q: How did the log2 fold change turn out when PXMP2 (UniProt Q9NR77) was run?
A: inactive: 0.024

Q: How did the log2 fold change turn out when RAB35 (UniProt Q15286) was run?
A: inactive: 0.005

Q: Which log2 fold change does the source give for PYCR3 (UniProt Q53H96) here?
A: inactive: -0.019

Q: How did the log2 fold change turn out when RAB4B isoform 2 (UniProt P61018) was run?
A: inactive: -0.005

Q: QPCTL (UniProt Q9NXS2) was tested. Which log2 fold change did it give?
A: inactive: -0.007

Q: How did the log2 fold change turn out when RAB18 isoform 2 (UniProt Q9NP72) was run?
A: inactive: -0.048

Q: For RAB24 (UniProt Q969Q5), which log2 fold change is on record?
A: inactive: -0.009

Q: RAF1 isoform 2 (UniProt P04049) was tested. Which log2 fold change did it give?
A: inactive: 0.024

Q: RAB32 (UniProt Q13637) was tested. Which log2 fold change did it give?
A: inactive: -0.003

Q: For R3HCC1L, A0A384DVK4, which log2 fold change is on record?
A: inactive: -0.068

Q: How did the log2 fold change turn out when PXMP4 (UniProt Q9Y6I8) was run?
A: inactive: 0.134

Q: Which log2 fold change does the source give for RABGAP1L isoform 3 (UniProt Q5R372) here?
A: inactive: 0.032

Q: R3HDM4 (UniProt Q96D70) was tested. Which log2 fold change did it give?
A: inactive: 0.017

Q: Which log2 fold change does the source give for R3HCC1 (UniProt Q9Y3T6) here?
A: inactive: -0.036

Q: Which log2 fold change does the source give for RAB5C isoform 2 (UniProt P51148) here?
A: inactive: -0.017

Q: For PYGB (UniProt P11216), which log2 fold change is on record?
A: inactive: 0.115

Q: For RAB21 (UniProt Q9UL25), which log2 fold change is on record?
A: inactive: -0.021

Q: With RACGAP1 (UniProt Q9H0H5) as the target, how does the log2 fold change read?
A: inactive: -0.031

Q: Which log2 fold change does the source give for RANBP1 (UniProt P43487) here?
A: inactive: -0.012

Each target was assayed with O=C1NC(=O)C(c2cnc3ccccn23)=C1c1cn2c3c(cc(F)cc13)CN(C(=O)N1CCCCC1)CC2 in the same assay as above.
Outline: as §1

Q: For RALY (UniProt Q9UKM9), which log2 fold change is on record?
A: inactive: 0.031

Q: With PYURF (UniProt Q96I23) as the target, how does the log2 fold change read?
A: inactive: -0.055

Q: Which log2 fold change does the source give for RAB2B (UniProt Q8WUD1) here?
A: inactive: 0.004

Q: How did the log2 fold change turn out when QTRT2 isoform 4 (UniProt Q9H974) was run?
A: inactive: -0.007

Q: How did the log2 fold change turn out when RAPGEF4 (UniProt Q8WZA2) was run?
A: inactive: 0.353

Q: How did the log2 fold change turn out when PYGL (UniProt P06737) was run?
A: inactive: 0

Q: Which log2 fold change does the source give for RAB6B (UniProt Q9NRW1) here?
A: inactive: 0.01

Q: Which log2 fold change does the source give for RAN (UniProt P62826) here?
A: inactive: -0.008

Q: With RAB11FIP1 (UniProt Q6WKZ4) as the target, how does the log2 fold change read?
A: inactive: 0.006

Q: RANBP2 (UniProt P49792) was tested. Which log2 fold change did it give?
A: inactive: 0.001

Q: Which log2 fold change does the source give for RAB20 (UniProt Q9NX57) here?
A: inactive: -0.018

Q: Which log2 fold change does the source give for RAB8A (UniProt P61006) here?
A: inactive: -0.103

Q: For RAPGEF1 isoform 3 (UniProt Q13905), which log2 fold change is on record?
A: inactive: -0.046

Q: Which log2 fold change does the source give for PXMP2 (UniProt Q9NR77) here?
A: inactive: 0.066

Q: With RAB35 (UniProt Q15286) as the target, how does the log2 fold change read?
A: inactive: -0.045

Q: For PYCR3 (UniProt Q53H96), which log2 fold change is on record?
A: inactive: 0.053

Q: Which log2 fold change does the source give for RAB4B isoform 2 (UniProt P61018) here?
A: inactive: -0.04

Q: QPCTL (UniProt Q9NXS2) was tested. Which log2 fold change did it give?
A: inactive: 0.051

Q: Which log2 fold change does the source give for RAB18 isoform 2 (UniProt Q9NP72) here?
A: inactive: 0.032

Q: How did the log2 fold change turn out when RAB24 (UniProt Q969Q5) was run?
A: inactive: -0.008

Q: RAF1 isoform 2 (UniProt P04049) was tested. Which log2 fold change did it give?
A: inactive: 0.068

Q: How did the log2 fold change turn out when RAB32 (UniProt Q13637) was run?
A: inactive: 0.01

Q: Which log2 fold change does the source give for R3HCC1L, A0A384DVK4 here?
A: inactive: 0.001

Q: For PXMP4 (UniProt Q9Y6I8), which log2 fold change is on record?
A: inactive: 0.021

Q: RABGAP1L isoform 3 (UniProt Q5R372) was tested. Which log2 fold change did it give?
A: inactive: -0.028

Q: R3HDM4 (UniProt Q96D70) was tested. Which log2 fold change did it give?
A: inactive: -0.021

Q: With R3HCC1 (UniProt Q9Y3T6) as the target, how does the log2 fold change read?
A: inactive: -0.002

Q: For RAB5C isoform 2 (UniProt P51148), which log2 fold change is on record?
A: inactive: 0.01

Q: With PYGB (UniProt P11216) as the target, how does the log2 fold change read?
A: inactive: -0.006

Q: Which log2 fold change does the source give for RAB21 (UniProt Q9UL25) here?
A: inactive: 0.029

Q: For RACGAP1 (UniProt Q9H0H5), which log2 fold change is on record?
A: inactive: 0

Q: For RANBP1 (UniProt P43487), which log2 fold change is on record?
A: inactive: -0.019
